The values that follow come from the supplement of paper PMC11006884.

Chains of the proteins cited; added tags and fusions are not shown. Lines headed by an entry give the natural chain unless they say otherwise; changes in a name come on top.
UniProt Q9C0C2: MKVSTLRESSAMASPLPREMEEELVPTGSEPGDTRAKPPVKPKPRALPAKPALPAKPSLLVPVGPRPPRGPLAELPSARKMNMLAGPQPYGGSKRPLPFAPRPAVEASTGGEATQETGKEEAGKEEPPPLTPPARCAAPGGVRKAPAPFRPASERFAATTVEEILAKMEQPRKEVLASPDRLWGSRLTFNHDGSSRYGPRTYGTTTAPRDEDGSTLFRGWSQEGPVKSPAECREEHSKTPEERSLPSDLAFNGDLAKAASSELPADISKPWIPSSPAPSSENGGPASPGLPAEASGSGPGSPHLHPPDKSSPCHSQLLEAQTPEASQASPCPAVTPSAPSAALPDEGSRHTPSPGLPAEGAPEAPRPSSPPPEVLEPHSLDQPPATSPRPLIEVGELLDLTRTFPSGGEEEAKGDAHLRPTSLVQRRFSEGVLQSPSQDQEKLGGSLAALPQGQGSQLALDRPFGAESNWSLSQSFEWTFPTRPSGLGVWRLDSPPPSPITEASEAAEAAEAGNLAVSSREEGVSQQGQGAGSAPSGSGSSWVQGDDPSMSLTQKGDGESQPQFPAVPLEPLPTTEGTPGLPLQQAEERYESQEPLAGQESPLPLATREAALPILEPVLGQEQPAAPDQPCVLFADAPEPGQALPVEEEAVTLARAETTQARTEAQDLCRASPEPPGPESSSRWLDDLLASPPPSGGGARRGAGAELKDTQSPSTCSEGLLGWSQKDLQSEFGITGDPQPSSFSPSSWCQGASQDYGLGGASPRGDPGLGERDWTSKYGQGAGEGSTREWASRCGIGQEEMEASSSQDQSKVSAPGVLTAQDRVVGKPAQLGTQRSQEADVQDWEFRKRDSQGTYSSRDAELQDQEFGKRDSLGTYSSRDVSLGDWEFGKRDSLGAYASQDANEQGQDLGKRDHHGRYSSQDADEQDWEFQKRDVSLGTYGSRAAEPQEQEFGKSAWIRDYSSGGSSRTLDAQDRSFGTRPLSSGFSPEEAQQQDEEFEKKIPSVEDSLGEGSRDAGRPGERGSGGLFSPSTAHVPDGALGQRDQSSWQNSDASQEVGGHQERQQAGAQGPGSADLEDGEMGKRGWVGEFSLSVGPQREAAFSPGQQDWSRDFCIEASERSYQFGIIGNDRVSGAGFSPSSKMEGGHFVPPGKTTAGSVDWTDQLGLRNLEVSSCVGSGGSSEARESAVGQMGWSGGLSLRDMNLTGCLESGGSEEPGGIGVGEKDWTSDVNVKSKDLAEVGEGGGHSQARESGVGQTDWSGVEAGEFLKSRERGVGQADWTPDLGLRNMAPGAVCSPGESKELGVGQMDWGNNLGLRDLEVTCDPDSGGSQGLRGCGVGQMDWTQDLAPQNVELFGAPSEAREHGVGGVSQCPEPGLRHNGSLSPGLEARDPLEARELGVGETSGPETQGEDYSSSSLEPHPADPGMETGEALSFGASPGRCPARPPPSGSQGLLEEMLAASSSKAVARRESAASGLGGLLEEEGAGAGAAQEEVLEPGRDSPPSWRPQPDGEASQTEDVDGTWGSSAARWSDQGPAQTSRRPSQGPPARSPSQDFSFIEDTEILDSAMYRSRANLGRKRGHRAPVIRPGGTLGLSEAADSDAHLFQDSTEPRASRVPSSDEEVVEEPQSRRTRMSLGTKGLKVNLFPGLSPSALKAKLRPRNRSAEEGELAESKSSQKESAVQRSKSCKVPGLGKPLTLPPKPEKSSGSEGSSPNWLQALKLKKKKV
UniProt Q9BXW7: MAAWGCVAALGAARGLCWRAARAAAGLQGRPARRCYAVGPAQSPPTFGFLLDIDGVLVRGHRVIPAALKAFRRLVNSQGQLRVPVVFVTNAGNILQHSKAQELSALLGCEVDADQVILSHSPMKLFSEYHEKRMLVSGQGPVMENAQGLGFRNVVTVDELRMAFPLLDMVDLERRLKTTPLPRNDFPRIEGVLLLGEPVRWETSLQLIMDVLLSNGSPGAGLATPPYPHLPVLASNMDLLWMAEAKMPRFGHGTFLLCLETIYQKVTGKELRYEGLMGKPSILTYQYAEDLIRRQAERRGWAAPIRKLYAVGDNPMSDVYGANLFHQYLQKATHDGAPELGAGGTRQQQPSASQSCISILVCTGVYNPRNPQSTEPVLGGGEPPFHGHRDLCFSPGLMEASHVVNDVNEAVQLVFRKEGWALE
UniProt Q9BXW9: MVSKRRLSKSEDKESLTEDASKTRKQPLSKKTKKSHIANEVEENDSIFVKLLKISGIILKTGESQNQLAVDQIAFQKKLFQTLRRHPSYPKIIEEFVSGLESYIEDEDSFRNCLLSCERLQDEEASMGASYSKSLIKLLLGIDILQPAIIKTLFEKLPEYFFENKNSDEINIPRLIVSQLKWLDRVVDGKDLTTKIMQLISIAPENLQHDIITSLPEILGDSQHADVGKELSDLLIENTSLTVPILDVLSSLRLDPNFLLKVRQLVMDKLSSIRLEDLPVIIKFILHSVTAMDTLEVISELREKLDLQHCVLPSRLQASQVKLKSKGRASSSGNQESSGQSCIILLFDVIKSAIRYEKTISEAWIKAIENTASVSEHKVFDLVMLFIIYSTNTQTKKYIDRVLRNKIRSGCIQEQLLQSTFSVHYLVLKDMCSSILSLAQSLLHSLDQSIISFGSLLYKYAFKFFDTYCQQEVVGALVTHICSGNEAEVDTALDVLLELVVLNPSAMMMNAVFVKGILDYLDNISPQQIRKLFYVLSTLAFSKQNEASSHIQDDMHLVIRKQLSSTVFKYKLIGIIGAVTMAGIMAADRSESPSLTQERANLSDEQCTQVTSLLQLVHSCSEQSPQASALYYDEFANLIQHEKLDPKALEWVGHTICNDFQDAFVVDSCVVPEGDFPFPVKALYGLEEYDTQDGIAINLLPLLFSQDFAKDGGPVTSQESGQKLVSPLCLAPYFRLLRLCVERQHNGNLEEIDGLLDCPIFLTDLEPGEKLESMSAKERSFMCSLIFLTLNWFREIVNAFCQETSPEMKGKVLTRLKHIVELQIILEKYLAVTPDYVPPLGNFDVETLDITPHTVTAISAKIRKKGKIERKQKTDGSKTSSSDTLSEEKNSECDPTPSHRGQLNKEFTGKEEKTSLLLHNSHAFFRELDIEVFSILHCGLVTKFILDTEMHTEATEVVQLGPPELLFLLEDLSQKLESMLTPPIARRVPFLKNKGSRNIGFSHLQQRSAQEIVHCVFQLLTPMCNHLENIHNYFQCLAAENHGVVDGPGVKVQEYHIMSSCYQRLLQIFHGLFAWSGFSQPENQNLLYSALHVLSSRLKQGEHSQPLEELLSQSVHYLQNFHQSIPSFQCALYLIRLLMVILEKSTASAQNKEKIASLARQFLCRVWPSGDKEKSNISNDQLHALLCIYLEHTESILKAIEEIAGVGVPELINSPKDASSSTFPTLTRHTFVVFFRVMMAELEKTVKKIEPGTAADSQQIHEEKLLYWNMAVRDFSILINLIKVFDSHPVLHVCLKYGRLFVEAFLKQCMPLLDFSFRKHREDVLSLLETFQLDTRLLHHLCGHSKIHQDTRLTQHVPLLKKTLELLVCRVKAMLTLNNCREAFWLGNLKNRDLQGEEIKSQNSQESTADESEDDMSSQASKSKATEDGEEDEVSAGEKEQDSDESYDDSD
UniProt Q9BYW2: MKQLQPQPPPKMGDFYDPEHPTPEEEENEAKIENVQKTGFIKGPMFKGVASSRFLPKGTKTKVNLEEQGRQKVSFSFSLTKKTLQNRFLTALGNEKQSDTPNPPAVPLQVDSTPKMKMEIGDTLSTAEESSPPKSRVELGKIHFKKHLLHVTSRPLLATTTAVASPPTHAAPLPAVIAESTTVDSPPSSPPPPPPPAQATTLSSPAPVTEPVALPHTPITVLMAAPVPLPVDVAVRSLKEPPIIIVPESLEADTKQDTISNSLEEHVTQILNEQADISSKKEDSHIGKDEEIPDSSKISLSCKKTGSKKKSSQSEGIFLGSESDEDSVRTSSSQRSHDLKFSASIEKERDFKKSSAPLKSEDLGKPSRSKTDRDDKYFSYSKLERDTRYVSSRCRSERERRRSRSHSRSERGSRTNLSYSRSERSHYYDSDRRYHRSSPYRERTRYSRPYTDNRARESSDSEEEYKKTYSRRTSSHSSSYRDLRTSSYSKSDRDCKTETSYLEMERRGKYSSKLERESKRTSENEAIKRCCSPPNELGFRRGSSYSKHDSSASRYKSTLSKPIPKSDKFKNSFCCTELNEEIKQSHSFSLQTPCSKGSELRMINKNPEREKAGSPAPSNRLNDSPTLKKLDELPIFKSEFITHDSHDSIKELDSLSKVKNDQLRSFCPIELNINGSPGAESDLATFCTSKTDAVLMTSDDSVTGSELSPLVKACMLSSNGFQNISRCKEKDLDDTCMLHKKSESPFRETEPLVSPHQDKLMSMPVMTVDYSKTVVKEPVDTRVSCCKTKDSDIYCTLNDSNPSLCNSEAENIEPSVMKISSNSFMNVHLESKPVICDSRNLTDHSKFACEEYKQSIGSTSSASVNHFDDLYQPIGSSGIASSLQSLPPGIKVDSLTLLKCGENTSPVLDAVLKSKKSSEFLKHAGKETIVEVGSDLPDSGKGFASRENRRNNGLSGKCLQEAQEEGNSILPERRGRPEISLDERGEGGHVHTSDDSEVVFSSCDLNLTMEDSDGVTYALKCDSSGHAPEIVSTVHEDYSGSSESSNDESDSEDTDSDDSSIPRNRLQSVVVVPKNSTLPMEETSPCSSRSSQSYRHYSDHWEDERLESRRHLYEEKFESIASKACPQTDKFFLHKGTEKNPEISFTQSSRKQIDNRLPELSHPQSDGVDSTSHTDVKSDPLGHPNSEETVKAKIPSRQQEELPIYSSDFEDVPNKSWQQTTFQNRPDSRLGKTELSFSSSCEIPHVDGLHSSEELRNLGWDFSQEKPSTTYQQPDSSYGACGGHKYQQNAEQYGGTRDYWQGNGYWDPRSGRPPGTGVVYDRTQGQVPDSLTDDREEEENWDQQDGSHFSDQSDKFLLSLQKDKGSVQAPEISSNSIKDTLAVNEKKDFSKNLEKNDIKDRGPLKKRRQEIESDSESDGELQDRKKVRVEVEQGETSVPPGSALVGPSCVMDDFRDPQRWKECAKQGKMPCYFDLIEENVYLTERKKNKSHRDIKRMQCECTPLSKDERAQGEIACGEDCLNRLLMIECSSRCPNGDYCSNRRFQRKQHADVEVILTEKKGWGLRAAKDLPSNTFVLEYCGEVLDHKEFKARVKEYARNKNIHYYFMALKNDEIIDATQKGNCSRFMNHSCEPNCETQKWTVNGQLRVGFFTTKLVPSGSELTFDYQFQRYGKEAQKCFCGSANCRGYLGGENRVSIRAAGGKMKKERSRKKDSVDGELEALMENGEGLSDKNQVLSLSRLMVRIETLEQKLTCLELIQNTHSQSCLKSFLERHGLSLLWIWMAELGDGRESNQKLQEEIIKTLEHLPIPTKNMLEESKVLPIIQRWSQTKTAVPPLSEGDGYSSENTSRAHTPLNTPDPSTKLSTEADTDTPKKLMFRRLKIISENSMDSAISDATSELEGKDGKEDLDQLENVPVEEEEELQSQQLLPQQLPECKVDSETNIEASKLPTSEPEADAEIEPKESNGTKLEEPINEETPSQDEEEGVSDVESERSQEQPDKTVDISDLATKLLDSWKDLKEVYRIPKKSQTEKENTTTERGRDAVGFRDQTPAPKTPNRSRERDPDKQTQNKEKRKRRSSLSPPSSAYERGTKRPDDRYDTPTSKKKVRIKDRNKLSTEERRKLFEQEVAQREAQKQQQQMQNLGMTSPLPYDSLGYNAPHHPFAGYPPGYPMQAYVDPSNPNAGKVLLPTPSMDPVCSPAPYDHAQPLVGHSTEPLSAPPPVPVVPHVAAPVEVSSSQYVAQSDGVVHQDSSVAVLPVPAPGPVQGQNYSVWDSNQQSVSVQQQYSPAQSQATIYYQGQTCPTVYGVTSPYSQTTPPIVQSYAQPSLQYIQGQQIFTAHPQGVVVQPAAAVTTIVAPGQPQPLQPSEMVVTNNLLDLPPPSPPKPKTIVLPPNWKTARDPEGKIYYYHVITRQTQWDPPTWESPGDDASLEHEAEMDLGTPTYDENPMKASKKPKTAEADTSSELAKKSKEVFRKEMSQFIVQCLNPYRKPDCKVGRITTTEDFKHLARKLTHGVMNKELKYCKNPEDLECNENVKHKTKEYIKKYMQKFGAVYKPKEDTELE
UniProt Q9H019: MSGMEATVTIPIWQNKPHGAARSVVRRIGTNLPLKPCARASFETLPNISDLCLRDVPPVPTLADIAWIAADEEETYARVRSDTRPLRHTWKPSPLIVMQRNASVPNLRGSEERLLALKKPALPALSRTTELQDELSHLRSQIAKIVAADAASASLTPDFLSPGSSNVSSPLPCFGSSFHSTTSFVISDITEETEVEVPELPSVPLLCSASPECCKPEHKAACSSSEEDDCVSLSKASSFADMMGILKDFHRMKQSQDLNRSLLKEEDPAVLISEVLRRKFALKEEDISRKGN

The entries are a selection whose mix differs from that of the whole data set.

Compound in this assay: COC(=O)C#Cc1ccccc1 [methyl 3-phenylpropiolate]
Nature of the assay: log2 ratio of iodoacetamide-alkyne labeling of the cysteine site, DMSO over compound (competition); higher = stronger covalent engagement of the cysteine by the compound, active = 1 or more. To be noted: 500 µM; treatment time 1 h; system: HEK293T cell lysate. The essentials:
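The log2 competition ratio per cysteine is defined as mean reporter intensity in control channels over mean reporter intensity in compound channels. Lysate from HEK293T cells (2 mg/mL) received electrophile (500 µM) or vehicle for 1 h at ambient temperature, followed by iodoacetamide alkyne for 1 h. Samples were clicked to sCIP-TMT reagents, pooled, trypsin-digested overnight at 37 °C, streptavidin-enriched, acid-eluted and run on Orbitrap Eclipse LC-MS/MS with FAIMS, with quantification in FragPipe. Three replicates with duplicate channels were used, and any cysteine quantified in only one replicate was excluded.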
ANP32E C123 (UniProt Q9BTT0): the “log2 ratio of iodoacetamide-alkyne labeling” value (“log2 ratio” for short) is inactive: 0.02. Regarding LSG1 C455 (UniProt Q9H089), the “log2 ratio” value was inactive: -0.0915. The value for UniProt Q9C0B7_C360 was inactive: 0.633; that for XRN2 C159 (UniProt Q9H0D6) was inactive: 0.565; that for ANAPC1 C729 (UniProt Q9H1A4) was inactive: 0.201. Turning to UniProt Q9BSJ8_C522, the “log2 ratio” value is inactive: 0.823. The figure for TNKS1BP1 C1337 (UniProt Q9C0C2) is active: 1.01. Regarding DDX23 C692 (UniProt Q9BUQ8), the “log2 ratio” value is inactive: 0.105.

Take HNRNPUL1 C291 (UniProt Q9BUJ2): the “log2 ratio” value was inactive: 0.483. For UniProt Q9BXW7_C392, the “log2 ratio” value is inactive: -0.0305. On to UniProt Q9BTT6_C432, for which the “log2 ratio” value is inactive: 0.39.

For the target FANCD2 C758 (UniProt Q9BXW9), the “log2 ratio” value was inactive: 0.39. With UniProt Q9BVS4_C449, the “log2 ratio” value was active: 1.18. Regarding SETD2 C1086 (UniProt Q9BYW2), the “log2 ratio” value was inactive: 0.661. As for UniProt Q9H019_C52, the “log2 ratio” value was inactive: 0.442.
